We go through 58 compounds from ChEMBL document CHEMBL4513149, “CO-ADD screening of MMV (CH) - MMV compounds” (2021).

The other results are listed elsewhere or left out. Entries with a potency or affinity are not part of this list.

This test deals with Acinetobacter baumannii. Conditions: Concentration 20 uM; ASSAY_TEST Inhibition of Bacterial Growth; detection method Absorption (OD600); MEDIA CAMHB; plate type 384well; NBS; CORNING #3640; time 18 hr.
`Cl.NCCCC(N)(C(=O)O)C(F)F.O` (stereo not drawn) [EFLORNITHINE HYDROCHLORIDE]: the Inhibition (as a rule, the relative decrease from the control value, in per cent) is given as 6.34%. As for `C[C@H](c1ccc2c(c1)CCCC2)N(C)c1ncc2c(N)nc(N)nc2n1`, the Inhibition turned out to be 15.43%.

For `Cc1ccccc1CN1CCC(O)(c2ccc(Cl)c(C(F)(F)F)c2)CC1`, the Inhibition worked out at 5.63%.

On to `CCCCc1ccc(NC(=O)Nc2ccc(O[C@H]3CCCC[C@@H]3N(C)c3ccccc3)c(F)c2)cc1`, for which the Inhibition is on record as 12.41%.

With `CCOc1ccccc1C(=O)Nc1cccc(-c2nc3ncccn3c2C)c1`, the Inhibition turned out to be 17.76%. With `COc1cc(NC(=O)Cc2nn(C)c(=O)c3ccccc23)ccc1Cl` the figure was 8.43%. The value for `COc1ccccc1CNC(=O)c1cc(C2CC2)nc2c1cnn2C(C)C` was 2.44%; that for `CNC(=O)c1nn(C)c2c1C(C)(C)Cc1cnc(Nc3ccc(N4CCN(C)CC4)cc3)nc1-2` [MILCICLIB] was 2.31%. With `CCC(Sc1nc2ccccc2o1)C(=O)Nc1nnc(C)s1` (stereo not drawn) the figure was 7.01%; with `Cl.O=C(Nc1ccc(N2CCNCC2)nc1)c1oc(-c2ccccc2)nc1C(F)(F)F`, 4.8%; with `Cc1cccc(NC(=O)c2cc(S(=O)(=O)N(C)c3ccc(F)cc3)ccc2Cl)n1`, 9.94%. As for `N=C(N)c1ccc(-c2cc(-c3ccccc3)on2)cc1`, the Inhibition is on record as 12.3%. For `O=C(NCc1cc(Cl)cc(Cl)c1)c1c(C(F)(F)F)nc2ccccn12`, the Inhibition turned out to be 9.38%. Take `CS(=O)(=O)Cc1nc2ccccc2oc1=O`: the Inhibition is 11.71%. The value for `COc1ccc(-c2cncc3ccc(C(=O)NCCCn4ccnc4)nc23)cc1` was -5.55%. With `COc1ccc(Cn2cnc3c(-c4ccco4)nc(Cl)nc32)cc1` the figure was 8.03%; with `OCCc1ccc(Nc2nccc(-c3nnc4ccccn34)n2)cc1`, 7.9%; with `CN(C)c1cc(NC(=O)Nc2ccccc2)c2ccccc2n1`, 14.06%. Take `CCN(CC)S(=O)(=O)c1ccc(Cl)c(C(=O)Nc2ccc3nc(C)sc3c2)c1`: the Inhibition was determined as 5.37%. The value for `O=C1[C@@H](Oc2ccccc2)[C@@H](c2ccc(Cl)cc2)N1CCn1cnc2c(NCc3ccccc3)ncnc21` was 3.98%; that for `N#Cc1nc(-c2ccccc2F)oc1NCCc1ccccc1` was 6.21%; that for `Cc1ccc2nc(C)c(-c3ccn(Cc4ccccc4)n3)n2c1` was 2.02%. With `COc1cc(-c2cc(-c3ccc(S(C)(=O)=O)cc3)cnc2N)ccc1O` the figure was -9.66%; with `CNC1C(OC2C(OC3C(O)C(O)C(NC(=N)N)C(O)C3NC(=N)N)OC(C)C2(O)C=O)OC(CO)C(O)C1O.CNC1C(OC2C(OC3C(O)C(O)C(NC(=N)N)C(O)C3NC(=N)N)OC(C)C2(O)C=O)OC(CO)C(O)C1O.O=S(=O)(O)O.O=S(=O)(O)O.O=S(=O)(O)O` (stereo not drawn), 1.27%; with `c1ccc(-c2[nH]c3ccccc3c2C(c2ccccn2)N2CCCC2)cc1` (stereo not drawn), 10.19%. On to `Clc1ccc(Cl)c(CO[C@H]2CCCC[C@@H]2n2ccnc2)c1`, for which the Inhibition was 15.2%. With `Cc1cc(C)n(-c2ccc(NC(=O)C3CCN(Cc4cnc(C)s4)CC3)cc2)n1` the figure was 8.93%.

As for `O=C1N(Cc2cc3ccccc3s2)CC2CN(Cc3ccccc3)CCN12` (stereo not drawn), the Inhibition is on record as 0.51%.

For `Cl.Cn1ccnc1CNCCS(=O)(=O)c1cccc(Nc2ccc(-c3cccc(F)c3)cn2)c1`, the Inhibition is recorded as 8.57%. With `Cc1cc(NC(=O)c2ccc(S(=O)(=O)N(Cc3ccccc3)C(C)C)cc2)no1` the figure was -3.71%. With `CC1=Nc2ccc(Cl)cc2C(c2ccccc2)N1CCNC(=O)CN(C)C` (stereo not drawn) the figure was 8.88%; with `CN1CCN(c2nccc3[nH]c(-c4cccc(F)c4)cc23)CC1`, -2.54%; with `O=C(NCCN1CCCC1)c1cc(NCCCCN2CCC(F)(F)CC2)nc2ccc(Cl)cc12`, 14.07%.

On to `COc1cncc(-c2cncc(N3CCN(c4ccncc4)CC3)n2)c1`, for which the Inhibition was 16.72%. The value for `O=S(=O)(c1ccc(Cl)cc1)N1CCN(C(=S)NCc2ccco2)CC1` was 6.4%; that for `Cc1ccc2[nH]c3c(NCCN(C)C)ncnc3c2c1` was 10.41%. Consider `CC1=NN(c2nc3ccccc3s2)C(=O)C1Cc1cccc2ccccc12` (stereo not drawn), for which the Inhibition is listed as -6.52%. The value for `CC1CC1C(=O)NC1CCN(CC2(c3ccccc3)CCCCC2)CC1` (stereo not drawn) was 10.59%; that for `COc1cccc(OC)c1C(=O)Nc1ccc(Cl)c(-c2nc3ccccc3s2)c1` was -0.36%; that for `O=C(NCc1ccco1)N1CCN(Cc2ccc(Cl)s2)CC1` was 8.99%. Take `CCCCS(=O)(=O)Nc1ccc2cnn(C)c2c1`: the Inhibition was 1.4%. With `CCN(CC)CCCN1CCN(C(=O)c2cccc(-c3noc(C(F)(F)F)n3)c2)CC1` the figure was 6.18%; with `Cc1ccc(-c2nc(CN(Cc3ccccn3)C(C)C)cs2)o1`, 9.23%; with `Nc1ccc(C(=O)Nc2ccc(-c3nc4ccccc4o3)cc2)cc1`, -1.87%.

For `CC(C)(C)OC(=O)N1CCN(c2nccc(-c3ccc(-c4ccc(Cl)cc4)s3)n2)CC1`, the Inhibition is given as 6.58%. The value for `CC(C)/N=c1\cc2n(-c3ccc(Cl)cc3)c3ccccc3nc-2cc1Nc1ccc(Cl)cc1` [CLOFAZIMINE] was -0.68%; that for `c1cc(C2=NCCN2)cc(-c2cc(-c3ccc(C4=NCCN4)cc3)no2)c1` was 13.62%. Regarding `Cc1cc(C)nc(-n2nc(C)cc2Nc2ccccc2)n1`, the Inhibition was found to be 19.44%.

For `Nc1ncnc2[nH]nc(Cc3cccc4ccccc34)c12`, the Inhibition came to 6.9%. For `CN1CCCC1CCO[C@](C)(c1ccccc1)c1ccc(Cl)cc1.O=C(O)/C=C/C(=O)O` (stereo partly drawn), the Inhibition is listed as 22.76%.

On to `Cc1ccc(-c2cc(C(=O)Nc3cccnc3)c3cc(Br)ccc3n2)cc1`, for which the Inhibition worked out at 7.25%. With `CCCn1c(CNc2ccccc2O)nc2ccccc21` the figure was 12.04%; with `Cc1cc(Nc2ccc(C(F)(F)F)cc2)n2ccnc2n1`, 0.53%; with `COc1ccc(CN2CCOc3ccc(C(C)(O)CN(C)C)cc3C2)cc1C` (stereo not drawn), -1.07%. On to `O=C(NCCc1c[nH]c2ccccc12)c1cc2ccccc2oc1=O`, for which the Inhibition came out at 3.94%. The value for `CC1CCCN(C(=O)C(C)Nc2cc(Cl)ccc2N2CCOCC2)C1` (stereo not drawn) was 9.92%. The value for `COc1ccc(-c2cnc3cnc(-c4cccc(OC(C)C)c4)cn23)cc1` was 2.09%. With `COc1nc2ccc(Br)cc2cc1[C@@H](c1ccccc1)[C@@](O)(CCN(C)C)c1cccc2ccccc12.O=C(O)C(F)(F)F` the figure was 9.78%.
